Test results: PMC9333443, “Structural insights into Pot1-ssDNA, Pot1-Tpz1 and Tpz1-Ccq1 Interactions within fission yeast shelterin complex” (PLoS Genetics, 2022)
These are yes or no findings as the source states them, for the method shown. Binding can be weak; no strength is given. For some assays here: Binding seen in cells or lysates may run through a third protein.

Amino acid sequences for entries named in this document (tags omitted). A change or cut given only in a name is not applied to a line headed by its entry.
UniProt O13988: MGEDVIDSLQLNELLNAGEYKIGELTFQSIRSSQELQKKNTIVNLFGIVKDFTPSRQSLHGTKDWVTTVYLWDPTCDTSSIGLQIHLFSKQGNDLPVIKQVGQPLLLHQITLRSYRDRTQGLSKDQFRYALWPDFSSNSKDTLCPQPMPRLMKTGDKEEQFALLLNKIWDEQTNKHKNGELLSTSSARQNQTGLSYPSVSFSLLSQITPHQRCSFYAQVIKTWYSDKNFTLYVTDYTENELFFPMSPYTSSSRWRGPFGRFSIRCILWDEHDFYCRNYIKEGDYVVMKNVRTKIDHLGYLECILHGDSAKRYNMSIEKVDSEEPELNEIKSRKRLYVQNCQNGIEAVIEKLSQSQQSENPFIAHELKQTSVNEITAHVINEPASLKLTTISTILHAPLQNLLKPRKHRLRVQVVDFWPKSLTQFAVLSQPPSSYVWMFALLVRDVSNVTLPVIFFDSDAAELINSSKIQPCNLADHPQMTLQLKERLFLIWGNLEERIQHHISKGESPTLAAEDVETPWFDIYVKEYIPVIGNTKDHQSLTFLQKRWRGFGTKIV
UniProt O14246: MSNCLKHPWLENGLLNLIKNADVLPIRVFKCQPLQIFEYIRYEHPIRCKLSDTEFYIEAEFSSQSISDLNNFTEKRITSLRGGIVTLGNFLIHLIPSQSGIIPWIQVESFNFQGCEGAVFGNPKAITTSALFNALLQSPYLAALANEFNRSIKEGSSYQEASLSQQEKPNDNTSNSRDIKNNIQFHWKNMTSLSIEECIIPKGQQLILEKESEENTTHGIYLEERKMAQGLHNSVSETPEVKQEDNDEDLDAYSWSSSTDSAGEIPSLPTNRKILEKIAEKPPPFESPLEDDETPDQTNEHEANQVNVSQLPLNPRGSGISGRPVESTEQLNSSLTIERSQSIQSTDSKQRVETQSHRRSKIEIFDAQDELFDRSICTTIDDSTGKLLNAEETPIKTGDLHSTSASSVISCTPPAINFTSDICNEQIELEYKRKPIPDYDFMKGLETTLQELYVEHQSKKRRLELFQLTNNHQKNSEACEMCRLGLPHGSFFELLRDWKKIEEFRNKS

Legend:
[1] = target: Pot1OB3 (Pot1 372-555), purified (S. pombe) (UniProt O13988); assay: crystal structure; Pot1OB3-Tpz1PIM complex, SAD, 2.6 Å; sitting drop at 4°C, 25% PEG8000, 100 mM sodium citrate, 100 mM Tris-HCl pH 8.0; both purified
[2] = target: Pot1OB3 (Pot1 372-555), purified (S. pombe) (UniProt O13988); assay: SEC; co-expressed and co-purified complexes on gel filtration (calibrated for Tpz1CBM-Ccq1TAD); 25 mM Tris-HCl pH 8.0, 150 mM NaCl, 5 mM dithiothreitol; both purified

- binding [1]: binds
- binding [2]: binds
Substance: Tpz1PIM (Tpz1 185-212), purified (from UniProt O14246) (domain or fragment)
